Source: PubChem BioAssay AID1259415 (National Center for Advancing Translational Sciences (NCATS), 2018)
The whole screen tested about 410,000 compounds, of which about 18,000 (4.4%) were called active. The shares of active, inactive and inconclusive entries below differ from those in the screen. No stated cut-off is given here; in the data, active means activity change below about -60%; inconclusive means no clear call, values can overlap the other calls; inactive means above about -39%.

experiment: qHTS Assay for inhibitors of the human cytomegalovirus (HCMV); settings: HFF cells, HCMV-luciferase reporter, 72 h; at 57.5 µM; hits give low values
In short: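 Two-dose cell screen: HFF monolayers treated with compounds and infected with luciferase-expressing HCMV at 1 PFU/cell, 72 h at 37C, then lysed for luciferase measurement.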
On the % scale 0 is the no-effect control and ±100 the full control effect.

| SMILES | activity change, negative = inhibition |
| --- | --- |
| COC(=O)c1ccc(CN2C(=O)C(C)N(C(=O)c3c(F)cccc3F)c3ccccc32)cc1 (configuration not stated) | inactive: -6.87% |
| Cc1cccc(N=C2NC(=O)/C(=C/c3cccnc3)S2)c1 | inconclusive: -43.5% |
| CC(=O)Nc1ccc(C(=O)NNC(=O)c2cccs2)cc1 | active: -66.7% |
| Clc1ccc(Nc2ccc(-n3ccnc3)nn2)cc1Cl | inconclusive: -42% |
| COC(=O)C1=C(c2ccc(F)cc2OCc2ccccc2)C[C@@H]2CC[C@H]1N2C(=O)NC1CCN(Cc2ccccc2)CC1 | inactive: -6.61% |
| O=C(CSc1nnc(NC2CCCCC2)s1)Nc1ccc(N2CCOCC2)cc1 | inconclusive: -44% |
| Cc1cc(OCCNCCO)cc(C)c1Cl | inactive: 2.85% |
| COc1cc2c(cc1OC)CN(C(=O)c1cc(S(=O)(=O)N3CCCCC3)ccc1Cl)CC2 | inconclusive: -56.7% |
| Cc1cc(-c2ccccc2)n2nc(-c3ccc(Cl)cc3)cc2n1 | inactive: -4.31% |
| CN(CC(=O)Nc1cccc(F)c1)C(=O)CCSc1ccc(F)cc1 | inconclusive: -45.3% |
| COc1ccc(C2C(C#N)=C(N)OC3=C2C(=O)CC(C)(C)C3)cc1OC (configuration not stated) | inconclusive: -44.2% |
| Cc1ccc2[nH]c(=O)c(CNS(=O)(=O)c3ccccc3)c(-c3ccccc3)c2c1 | inconclusive: -57% |
| Cc1ccc(S(=O)(=O)Nc2ccc(Cl)cc2)cc1NC(=O)c1cc2c(s1)CCCC2 | inconclusive: -41.1% |
| COc1cc(/C=N/NC(=O)COc2ccc(Cl)cc2)ccc1OS(=O)(=O)c1ccc(C)cc1 | inactive: 6.75% |
| CCc1ccccc1NC(=O)Cn1c(=O)n(CCCCCC(=O)NCc2ccc(C)cc2)c(=O)c2sccc21 | inactive: -31.7% |
| Cc1cc(NC(=O)Cn2cc([N+](=O)[O-])cn2)no1 | inconclusive: -42.3% |
| Cc1ccccc1Nc1cc(C)c2c(O)cccc2n1 | active: -89.4% |
| O=S(=O)(c1cc(Cl)ccc1Cl)n1nnc2ccccc21 | inconclusive: -46.1% |
| Cc1ccc2nc(N3CCN(S(=O)(=O)c4ccc(C)c(Cl)c4)CC3)c(C#N)cc2c1 | inactive: -39.6% |
| COc1ccc(C(=O)N2CCC(c3nc4ccccc4s3)CC2)cc1Cl | inconclusive: -48.1% |
| O=C(NCc1nnnn1-c1ccc(F)cc1)c1ccc(S(=O)(=O)N2CCOCC2)cc1 | inconclusive: -49.7% |
| O=[N+]([O-])c1ccc2[nH]nc(-c3ccccc3)c2c1 | inconclusive: -48.9% |

Rewritten bar-delimited: part of the list above.
SMILES | activity change, negative = inhibition
Cc1cccc(N=C2NC(=O)/C(=C/c3cccnc3)S2)c1 | inconclusive: -43.5%
COC(=O)C1=C(c2ccc(F)cc2OCc2ccccc2)C[C@@H]2CC[C@H]1N2C(=O)NC1CCN(Cc2ccccc2)CC1 | inactive: -6.61%
O=C(CSc1nnc(NC2CCCCC2)s1)Nc1ccc(N2CCOCC2)cc1 | inconclusive: -44%
COc1cc2c(cc1OC)CN(C(=O)c1cc(S(=O)(=O)N3CCCCC3)ccc1Cl)CC2 | inconclusive: -56.7%
Cc1ccc2[nH]c(=O)c(CNS(=O)(=O)c3ccccc3)c(-c3ccccc3)c2c1 | inconclusive: -57%

(listing goes on)

| SMILES | activity change, negative = inhibition |
| --- | --- |
| CCn1c(SCC(=O)NCCc2ccccc2)nc2c([nH]c3ccccc32)c1=O | inactive: 90.7% |
| COC(=O)[C@]12CCCCC=C1N(Cc1ccc(Cl)cc1Cl)C(=O)[C@H](CC(=O)NCc1ccc(C)o1)C2 | inactive: -34% |
| COCCNC(=O)c1sc(=O)n(Cc2ccc(SC)cc2)c1C | inactive: 28.7% |
| O=C(CN1C(=O)/C(=C/c2ccccc2)SC1=S)NC1C=CS(=O)(=O)C1 (configuration not stated) | inconclusive: -52.2% |
| CN1C(CC(=O)Nc2ccc(Br)cc2)c2ccccc2CC1(C)C (configuration not stated) | inconclusive: -43% |
| O=c1[nH]c(SCc2ccccc2[N+](=O)[O-])nc2nc[nH]c12 | inconclusive: -49.1% |
| CC(=O)Nc1ccc(S(=O)(=O)N(C)CC(=O)OC2CCCCC2=O)cc1 (configuration not stated) | inconclusive: -51.3% |
| COc1ccccc1CNc1nc(Nc2ccccc2Cl)c2sccc2n1 | active: -67.2% |
| COc1ccc(S(=O)(=O)NCCc2sc(-c3cccnc3)nc2C)c(F)c1 | inactive: -5.25% |
| Cc1ccc(NC(=O)Cn2c(=S)[nH]c3ccccc32)cc1 | inconclusive: -43.8% |
| COc1cccc2cc(/C(=N/O)c3ccc(Br)cc3)oc12 | active: -65.9% |
| O=C(COc1ccccc1)NCc1ccco1 | inconclusive: -46.1% |
| CC1CCN(S(=O)(=O)c2cc(C(=O)NC3(C)CCS(=O)(=O)C3)ccc2Br)CC1 (configuration not stated) | active: -61.4% |
| CCOC(=O)c1cccc(NC(=O)C(NS(=O)(=O)c2ccc3c(c2)CCN3C(C)=O)C(C)C)c1 (configuration not stated) | inactive: 46.4% |
| Cc1ccc(NC(=O)CN(C)C(=S)NC2CC2)cc1 | inactive: -26.7% |
| Cc1ccc(OCCn2c(C)nc3ccccc32)cc1 | inconclusive: -42.6% |
| O=C(CN1CC(c2ccccc2)CC1=O)OCc1ccccc1F (configuration not stated) | inconclusive: -47.6% |
| COc1ccc(/C=C/C2=CCN(Cc3ccc(OC)cc3)CC2)cc1 | inconclusive: -49.3% |
| Cc1ccc(-c2cc(C(=O)OCC(=O)N(C)c3c(N)n(Cc4ccccc4)c(=O)[nH]c3=O)c3ccccc3n2)o1 | inactive: -15.9% |
| COc1ccc(NS(=O)(=O)c2ccc(-c3coc(C)n3)cc2)cc1OC | active: -92.4% |
| Cc1sc2c(c1C)c(=O)n(-c1ccc(Cl)cc1)c(=O)n2Cc1cc(=O)n2cc(Br)ccc2n1 | inactive: 10% |
| CN(Cc1ccccc1)S(=O)(=O)c1ccc(Cl)c(C(=O)NCc2ccncc2)c1 | inconclusive: -41.6% |

Rewritten bar-delimited: 2 of the compounds above.
SMILES | activity change, negative = inhibition
COc1ccccc1CNc1nc(Nc2ccccc2Cl)c2sccc2n1 | active: -67.2%
COc1ccc(S(=O)(=O)NCCc2sc(-c3cccnc3)nc2C)c(F)c1 | inactive: -5.25%

Continuation:

| SMILES | activity change, negative = inhibition |
| --- | --- |
| NC(Cc1ccc(F)cc1)c1csc(NC(=O)NC(c2ccccc2)c2ccccc2)n1 (configuration not stated) | active: -103% |
| O=C(CSCc1ccc(Br)cc1)Nc1ccc(S(=O)(=O)N2CCCCCC2)cc1 | inconclusive: -59.2% |
| COc1cc(Cl)c(NC(=O)c2cc(S(=O)(=O)N3CCCCC3)c[nH]2)c(OC)c1 | inactive: -15.4% |
| CC1=C(C(=O)Nc2ccccc2)C(c2ccc(C)cc2)N=C(Nc2nc3ccccc3o2)N1 (configuration not stated) | active: -66.7% |
| Cc1cccc(NC(=O)CN2C(=O)N/C(=C/c3ccc(C)o3)C2=O)c1 | inconclusive: -51.9% |
| Cc1ccc(C(=O)N/C(=C\c2ccc(-c3cccc([N+](=O)[O-])c3)o2)C(=O)NCCCN(C)C)cc1 | inactive: -39.5% |
| CC(C)C1CC(CCN)(Cc2ccccc2)CCO1 (configuration not stated) | inconclusive: -44.5% |
| CN(c1ccccc1)S(=O)(=O)c1cccc(C(=O)Nc2nccs2)c1 | inconclusive: -41.8% |
| CCCCCCN1C[C@@H](O)[C@H](n2cc(COC(=O)c3ccccc3)nn2)C[C@@H]1c1ccc(OC)cc1 | active: -101% |
| O=C(Nc1ccc(F)cc1)c1cccc(N2C(=O)C3C4CCC(C4)C3C2=O)c1 (configuration not stated) | inconclusive: -59% |
| Cc1ccccc1Cn1c(C)c(C(=O)NCc2cccc(Cl)c2)sc1=O | inconclusive: -44.2% |
| CCCC(=O)C1=C(O)C(C(=O)OC)C(C)(C)CC1=NCCCCCC(=O)O (configuration not stated) | inconclusive: -40.1% |
| Oc1cccc(/C=N/NC(=S)NCCN2CCOCC2)c1O | inactive: -34.5% |
| Nc1nonc1-c1noc(CCCCCN2C(=O)c3ccccc3C2=O)n1 | inactive: 31.4% |
| CC(=O)Nc1ccc(C(=O)CN2C(=O)NC3(CCCCCC3)C2=O)c(F)c1 | inconclusive: -55.8% |
| Cc1cccc(N2CC(C(=O)O)CC2=O)c1C (configuration not stated) | inactive: 63.9% |
| Oc1[nH]c2ccccc2c1OCc1ccncc1 | inactive: 35.4% |
| CCOc1ccc(S(=O)(=O)N2CCC(C(=O)NC3CC3)CC2)cc1C | inconclusive: -53.4% |
| O=C(CCl)N(Cc1cc(=O)[nH]c2ccccc12)c1ccccc1 | active: -99.6% |
| CCN1CCN(C(=O)C(C)Oc2ccc(S(=O)(=O)N3CCCC3)cc2C(N)=O)CC1 (configuration not stated) | inconclusive: -46.1% |
| CCc1ccc(N2C(=O)CSC23C(=O)N(Cc2cccc(F)c2)c2ccccc23)cc1 (configuration not stated) | inconclusive: -43.2% |
| COc1cc2nc(N3CCNCC3)nc(N)c2cc1OC | inconclusive: -52.2% |

| SMILES | activity change, negative = inhibition |
| --- | --- |
| O=C(CN1CCN(c2ccc(O)cc2)CC1)NC(c1ccccc1)c1ccccc1 | inconclusive: -52.4% |
| COC(=O)OCC12CCC(O1)C1(C)C(=O)OCC21 (configuration not stated) | inconclusive: -42.4% |
| Cc1ccc(/C=N/NC(=O)c2ccc(-n3cnnn3)cc2)cc1 | inactive: 0% |
| COc1ccc(C2=NN(C(=O)c3cccs3)C(c3ccccc3OC)C2)cc1OC (configuration not stated) | inactive: -38.4% |
| COc1ccc(NC(=S)Nc2ccc(N(C)C(C)=O)cc2)cc1 | active: -98.3% |
| O=C(Cn1nc(C(F)(F)F)c2c1CCCC2)Nc1ccc(Cl)cc1 | active: -105% |
| CC(=O)c1ccc(N2CCN(c3ccc(C(F)(F)F)cn3)CC2)cc1 | inconclusive: -40.4% |
| COc1ccc(NC(=O)CSc2nnc(-c3ccccc3C)n2C)cc1 | active: -67.3% |
| COC(=O)/C(C#N)=C1/C=Cc2ccccc2N1 | inactive: 42.5% |
| O=C(c1ccco1)N1CCN(Cc2c(Cl)cccc2Cl)CC1 | inactive: 35% |
| CC(/C=N/NC(=O)CSc1ccccn1)=C\c1ccc(C(C)C)cc1 | inactive: 58.3% |
| COCCCN1C(=O)C(CC(=O)NCCN2CCOCC2)CC(C(=O)N2CCOCC2)=C1C (configuration not stated) | inactive: 17.6% |
| CC(=O)Nc1c(Cl)cnn(-c2ccccc2)c1=O | inconclusive: -41.4% |
| CCOc1cc(/C=N/NC(=O)CSc2cccc3cccnc23)ccc1O | inconclusive: -40.1% |
| COCCn1c(SCC(=O)Nc2cccnc2Cl)nc2ccccc21 | inconclusive: -48.6% |
| c1ccc(C(=NNc2nc3ccccc3s2)c2ccccn2)cc1 | active: -99.2% |
| Cc1ccc(NC(=O)Cn2cc(S(=O)(=O)N3CCCC3)c(S(=O)(=O)N3CCCC3)c2)c(C)c1 | inactive: -15.1% |
| Cc1occc1C(=O)N1CCN(c2ccc(Cl)c(Cl)c2)CC1 | inconclusive: -46.9% |
| NC1=NC(=O)/C(=C\c2ccsc2)S1 | inconclusive: -57% |
| CC(=O)Nc1ccc(N/C=C(\C#N)S(=O)(=O)c2ccc(Cl)cc2)cc1 | inconclusive: -44% |
| CCOC(=O)C(NC(=O)c1ccccc1)(Nc1cccc(C)n1)C(F)(F)F (configuration not stated) | inconclusive: -56.1% |
